Data reported in publication doi:10.1101/2024.01.09.574788.

Chains of the proteins cited; added tags and fusions are not shown.
UniProt F4J8D3: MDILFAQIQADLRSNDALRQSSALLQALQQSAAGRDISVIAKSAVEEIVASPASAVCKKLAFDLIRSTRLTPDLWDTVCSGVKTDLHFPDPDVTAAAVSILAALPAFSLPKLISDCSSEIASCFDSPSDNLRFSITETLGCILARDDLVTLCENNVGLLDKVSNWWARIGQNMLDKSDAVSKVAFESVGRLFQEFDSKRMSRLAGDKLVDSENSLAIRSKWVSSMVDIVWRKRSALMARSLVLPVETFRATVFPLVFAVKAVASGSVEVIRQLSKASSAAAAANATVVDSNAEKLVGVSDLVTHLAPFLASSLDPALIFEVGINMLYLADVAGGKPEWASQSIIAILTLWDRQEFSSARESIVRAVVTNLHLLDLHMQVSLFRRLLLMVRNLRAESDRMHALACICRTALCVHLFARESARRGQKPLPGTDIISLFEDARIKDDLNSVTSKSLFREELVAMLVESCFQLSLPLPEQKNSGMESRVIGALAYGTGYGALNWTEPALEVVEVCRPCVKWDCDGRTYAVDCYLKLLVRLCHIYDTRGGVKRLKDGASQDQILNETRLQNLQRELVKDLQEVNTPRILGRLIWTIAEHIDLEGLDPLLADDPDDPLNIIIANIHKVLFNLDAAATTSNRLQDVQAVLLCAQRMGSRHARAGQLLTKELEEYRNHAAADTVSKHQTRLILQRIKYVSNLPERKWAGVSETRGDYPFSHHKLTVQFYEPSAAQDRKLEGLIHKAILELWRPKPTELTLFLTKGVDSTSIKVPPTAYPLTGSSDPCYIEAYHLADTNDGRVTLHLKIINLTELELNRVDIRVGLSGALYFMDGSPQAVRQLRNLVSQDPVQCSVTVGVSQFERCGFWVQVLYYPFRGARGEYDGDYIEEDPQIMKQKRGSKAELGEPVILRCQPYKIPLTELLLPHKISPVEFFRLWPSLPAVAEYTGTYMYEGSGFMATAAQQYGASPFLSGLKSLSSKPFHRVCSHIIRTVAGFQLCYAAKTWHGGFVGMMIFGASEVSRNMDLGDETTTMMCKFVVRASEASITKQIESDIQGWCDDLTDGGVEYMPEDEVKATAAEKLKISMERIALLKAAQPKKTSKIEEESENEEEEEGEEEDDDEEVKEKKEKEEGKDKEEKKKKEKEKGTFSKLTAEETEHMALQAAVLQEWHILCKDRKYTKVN

Target: TPLATE-GSL-PafA (Arabidopsis) (UniProt F4J8D3)
Assay: proximity labelling

- binding: binds
Substance: AtEH1/Pan1, a subunit of the TPC (from UniProt F4HUN9)

Results are given in words; binding and its absence hold for the method and conditions named. Binding seen in cells or lysates may run through a third protein. Here binding means that the protein was enriched with, or labelled near, the bait; the list need not be complete.
